Results are given in words; binding and its absence hold for the method and conditions named. In cells and extracts the contact can be indirect. Binding can be weak; no strength is given.

Sequences of proteins named here, by UniProt entry; tags and fusion partners are left off. A change or cut given only in a name is not applied to a line headed by its entry.
UniProt P0DPQ6: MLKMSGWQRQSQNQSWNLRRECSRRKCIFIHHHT
UniProt P35638: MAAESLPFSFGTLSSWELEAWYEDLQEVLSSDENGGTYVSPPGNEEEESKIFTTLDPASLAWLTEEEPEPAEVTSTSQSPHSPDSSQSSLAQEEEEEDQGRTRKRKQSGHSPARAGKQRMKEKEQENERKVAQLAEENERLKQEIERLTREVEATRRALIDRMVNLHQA

Binding data for one substance are collected here from doi:10.1101/142992.

In the assay the target is altDDIT3^GFP (human) (UniProt P0DPQ6). Briefly: co-IP.

Consider “DDIT3^mCherry (from UniProt P35638 1-169)”, for which the binding entry is reported as “binds”.
